Assay results reported in PubChem BioAssay AID2685 (National Center for Advancing Translational Sciences (NCATS), 2010).
Where “and” joins values, the source holds several entries; their conditions need not be identical. Identical values can stand only once. The list shows a part of the results. Shown are side measurements of this screen, not its main read-out; they come without a call. The list favours compounds with an active or inconclusive main result. Words in brackets tell the shape of the fitted curve; partial curves, single points and poor fits give uncertain potencies.

Test: qHTS Assay for Lipid Storage Modulators in Drosophila S3 Cells;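 on cell number change: cells counted by Cell Tracker Red CMTPX staining in the red channel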
Details: BODIPY lipid droplet fluorescence, 18-24 h; for cell number change: measured here: cell count max response, cells fed with added oleic acid
In short: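 Laser-scanning cytometry quantifies lipid droplet accumulation (500–530 nm total intensity; droplet/cell object ratio) in oleic acid-fed (400 uM added) Drosophila S3 cells treated with a concentration series. 20 uM Triacsin C defined 100% inhibition.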

[1] = measured here: cell number channel AC50, cells fed with added oleic acid
[2] = measured here: lipid fluorescence (Fed channel) AC50, cells fed with added oleic acid

Compound: O=S1(=O)CCN2N=C(C3CC3)SC2=N1
- cell number change: -13.2%
- AC50 [1]: 6.51 µM [falling, single point]
- AC50 [2]: 1.03 µM [falling, full curve]

Compound: O=c1c(=O)n(O)c2ccccc2n1O
- cell number change: -3.94%

Compound: Cc1csc(NC(=O)CCN2C(=O)c3ccccc3S2(=O)=O)n1
- cell number change: 14.8%

Compound: Cc1ccc(Cl)cc1N1CCN(C(c2cccnc2)c2nnnn2C2CCCCC2)CC1 (configuration not stated)
- cell number change: 7.04%
- AC50 [2]: 1.3 µM [rising, partial curve]

Compound: CCCc1nc2ccccc2c(C(=O)OCC(=O)Nc2ccc(S(=O)(=O)N3CCOCC3)cc2)c1CC
- cell number change: 16.6%
- AC50 [2]: 3.66 µM [falling, single point]

Compound: COC(=O)[C@]1(C)CCC[C@@]2(C)C3CC[C@]4(OC(C)=O)C[C@@]3(CCC21)CC4=NO (some centres not stated)
- cell number change: -23.8%
- AC50 [2]: 0.103 µM [falling, full curve]

Compound: FC(F)(F)C1=CC(c2ccccc2)=NCCN1
- cell number change: 8.49%

Compound: Cc1cc(C)cc(NC(=O)CSc2nc(=O)n(CCN3CCOCC3)c3c2CCCC3)c1
- AC50 [1]: 0.58 µM [falling, single point]

Compound: Cc1cc(OCC(=O)NCCCN2CCCC2=O)c2c(C)c(C)c(=O)oc2c1
- cell number change: 20.5%

Compound: CCOC(=O)c1cnc(SC)nc1NCCOC
- cell number change: -16.6%

Compound: CN1CCc2cc3c(c4c2[C@H]1[C@H](O)c1ccccc1-4)OCO3
- cell number change: 22.7%
- AC50 [2]: 6.51 µM [rising, partial curve]

Compound: CC(C)c1ccc(/C=N/NC(=O)c2nnn(-c3nonc3N)c2CSC2=NCCS2)cc1
- cell number change: 5.85%

Compound: CCOc1ccc(NC(=O)CC2C(=O)N(CC)C(=S)N2NC(=O)c2ccncc2)cc1 (configuration not stated)
- cell number change: -5.81%

Compound: O=S(=O)(c1ccc2c(c1)OCCO2)N1CCNCC1
- cell number change: 13.5%
- AC50 [2]: 0.13 µM [rising, full curve, poor fit]

Compound: O=C(CN1CCN(Cc2ccccc2)CC1)Nc1ccc(S(=O)(=O)N2CCOCC2)cc1
- cell number change: -14.3%
- AC50 [2]: 0.82 µM [falling, partial curve, poor fit]

Compound: COCCCN(C(=S)Nc1cccc(Cl)c1)C(C)c1ccncc1 (configuration not stated)
- cell number change: -7.64%

Compound: CCN(CCCNC(=O)C1c2ccccc2C(=O)N(CCOC)C1c1ccc(F)cc1)Cc1ccccc1 (configuration not stated)
- cell number change: -10.9%
- AC50 [1]: 0.231 µM [falling, full curve, poor fit]
- AC50 [2]: 0.58 µM [falling, full curve, poor fit]

Compound: CCCC(=O)N1c2ccccc2[C@@H](N(C(C)=O)c2ccccc2)C[C@H]1C
- cell number change: 39.2%
- AC50 [1]: 0.00461 µM [rising, full curve, poor fit]

Compound: O=C(NC1CCCC1)c1cccc(S(=O)(=O)Nc2ccccc2F)c1
- cell number change: -6.16%
- AC50 [2]: 2.31 µM [rising, partial curve]

Compound: COc1cc2c(=O)n(Cc3ccccc3)c(=O)n(CC(=O)NCc3ccco3)c2cc1OC
- AC50 [1]: 0.517 µM [rising, partial curve]
- AC50 [2]: 0.461 µM [rising, partial curve, poor fit]

Compound: Cc1ccc(N(Cc2cc(=O)[nH]c3ccccc23)C(=O)CCl)cc1
- cell number change: 5.79%
- AC50 [2]: 20.6 µM [falling, single point]

Compound: Cc1onc(-c2ccccc2)c1C(=O)NC(=S)NNC(=O)c1ccco1
- cell number change: -50.3%
- AC50 [1]: 14.6 µM [falling, partial curve]
- AC50 [2]: 14.6 µM [falling, partial curve]

Compound: C[n+]1cc[nH]c1SCC(=O)c1ccc(Cl)cc1
- AC50 [1]: 0.092 µM [falling, full curve, poor fit]
- AC50 [2]: 0.13 µM [falling, full curve, poor fit]

Compound: O=C(COC(=O)c1cccnc1)Nc1cccc2ccccc12
- cell number change: 13.2%
- AC50 [1]: 4.11 µM [rising, single point]

Compound: COc1ccccc1NS(=O)(=O)c1cccc(C(=O)N/N=C/c2ccc(N3CCOCC3)cc2)c1
- AC50 [1]: 0.184 µM [falling, full curve]

Compound: Cc1nc2ccccn2c1C(=O)NC1CCCCC1
- cell number change: -11.5%
- AC50 [1]: 1.46 µM [falling, single point]

Compound: CC1=CC(C)(C)Nc2ccccc21
- cell number change: -46.5% and -30.1%
- AC50 [1]: 20.6 µM [falling, single point] and 82 nM [falling, full curve, poor fit]
- AC50 [2]: 29.1 µM [falling, single point] and 92 nM [falling, full curve, poor fit]

Compound: COc1cc(/C=N/O)ccc1OCc1ccc(Cl)cc1
- cell number change: -46.4%
- AC50 [1]: 2.31 µM [falling, partial curve, poor fit]
- AC50 [2]: 1.46 µM [falling, partial curve]

Compound: COc1ccc(C(C)=O)cc1COc1cccc2cccnc12
- cell number change: 8.76%

Compound: COc1ccc2c(c1)-c1c(ssc1=S)C(C)(C)N2C(=O)CSC1=NCCS1
- cell number change: -75.5%
- AC50 [1]: 25.9 µM [falling, partial curve]
- AC50 [2]: 20.6 µM [falling, partial curve]

Compound: C=CCN(CC=C)c1cnn(-c2nc3ccccc3[nH]2)c(=O)c1Cl
- cell number change: 27.3%
- AC50 [1]: 1.3 µM [rising, full curve, poor fit]

Compound: CCOc1ccc(NC(=O)c2ccco2)c([N+](=O)[O-])c1
- cell number change: 36.2%
- AC50 [1]: 0.651 µM [rising, single point]
- AC50 [2]: 29.1 µM [rising, single point]

Compound: CC(=O)Nc1ccc(N2CCCC2)cc1
- cell number change: 21%
- AC50 [2]: 1.64 µM [falling, partial curve, poor fit]

Compound: COC(=O)c1sccc1NS(=O)(=O)c1ccccc1
- cell number change: 14.7%
- AC50 [2]: 9.2 µM [rising, partial curve, poor fit]

Compound: COCCn1c(C23CC4CC(CC(C4)C2)C3)n[nH]c1=S
- AC50 [2]: 0.58 µM [rising, single point]

Compound: O=C(CN1C(=O)c2ccccc2C1=O)N1CCN(c2ccccn2)CC1
- cell number change: 7.37%
- AC50 [2]: 6.51 µM [falling, single point]

Compound: CC(C)(C)C(=O)Nc1sc2c(c1C#N)CCC2
- cell number change: 1.23%
- AC50 [1]: 0.103 µM [falling, full curve, poor fit]
- AC50 [2]: 0.092 µM [falling, partial curve, poor fit]

Compound: CCN1CCN(CCCNC(=O)c2ccc3c(Cl)c4c(nc3c2)CCCC4)CC1
- cell number change: 76.1%
- AC50 [1]: 29.1 µM [rising, single point]
